According to PubChem BioAssay AID493014 (National Center for Advancing Translational Sciences (NCATS), 2011):
The list shows a part of the results. Further columns of the screen follow, without active or inactive calls. The list favours compounds with an active or inconclusive main result. Potencies come from curve fits of mixed quality, noted in brackets.

Experiment: qHTS Assay to Find Inhibitors of Chronic Active B-Cell Receptor Signaling
Conditions: ABC-DLBCL IkBa-CBG/CBR reporter, luminescence ratio (green luciferase fused to IkBa over red control in TMD8 lymphoma cells), 4 h
Summary of the method: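 TMD8 human ABC-DLBCL cells with doxycycline-inducible IκBα–green luciferase fusion and unfused red luciferase, in 0.5% FBS medium; compounds up to 46 uM, 4 h at 37C. Green/red luminescence ratio, filter-overlap corrected, fitted to concentration-response curves.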

[1] = measured here: CBR red luminescence, cell number
[2] = measured here: IkBa-CBG green luminescence

| Structure (SMILES) | AC50 [1] | AC50 [2] |
| --- | --- | --- |
| COc1cccc(CNC(=O)C2=Cc3cccc(OC)c3OC2)c1 | 10 µM [falling, partial curve, poor fit] |  |
| CC(=O)c1cccc(NC(c2ccc(F)cc2)c2nnc(-c3ccccc3)o2)c1 (stereo not drawn) | 35.5 µM [falling, single point] |  |
| Nc1cc(C(=O)OCC(=O)N2CCOCC2)ccc1Cl | 7.94 µM [falling, partial curve] |  |
| c1ccc(-c2csc(N3CCOCC3)n2)cc1 |  | 6.51 µM [rising, partial curve, poor fit] |
| COc1ccccc1CC(=O)Nc1cccc2ccccc12 | 14.1 µM [rising, partial curve, poor fit] |  |
| CCCc1cc(C(=O)Nc2ccc(Cl)cn2)cs1 | 17.8 µM [falling, single point] |  |
| COC(=O)c1sc(S(=O)(=O)Nc2ccc(Br)cc2)c(C(=O)OC)c1C | 6.51 µM [rising, single point] |  |
| CCC1CO/C(=C(\C(=C(Cl)Cl)N2CCOCC2)[N+](=O)[O-])N1 (stereo not drawn) | 1.12 µM [rising, full curve, poor fit] |  |
| CCN(CC)CCNC(=O)Cc1nn(Cc2ccccc2)c(=O)c2ccccc12 | 3.16 µM [rising, single point] |  |
| CCOC(=O)c1ccc(NC(=S)N2CCCC2)cc1 | 14.1 µM [rising, single point] |  |
| COc1ccc(/C=N/OCC(=O)Nc2nc3ccccc3s2)cc1 | 29.1 µM [falling, single point] |  |
| Cc1ccccc1CSc1nc2c(sc3ccccc32)c(=O)n1CCCOC(C)C | 4.47 µM [rising, full curve, poor fit] |  |
| COc1ccc(C(=O)N/N=C/c2ccc(OC)c(COc3ccc(F)cc3)c2)cc1 | 4.47 µM [falling, partial curve, poor fit] | 12.6 µM [rising, partial curve, poor fit] |
| Cc1cc(Cl)nc2ccc(Cc3ccc4nc(Cl)cc(C)c4c3)cc12 | 35.5 µM [rising, single point] |  |
| Cc1cc(C)nc(SCC(=O)Nc2nc(-c3ccccc3)c(-c3ccccc3)o2)n1 | 2.31 µM [falling, partial curve] |  |
| C/[N+]([O-])=C\C1C(=O)CC(C)(C)CC1=O | 15.8 µM [rising, single point] | 12.6 µM [falling, partial curve, poor fit] |
| COc1ccc(N(C)S(=O)(=O)c2cccc(C(=O)N3CCN(c4ccccc4)CC3)c2)cc1 | 4.11 µM [falling, partial curve, poor fit] |  |
| COc1ccc(C(CC(=O)c2ccccc2)S(=O)(=O)c2ccccc2)cc1 (stereo not drawn) | 8.2 µM [rising, partial curve] |  |
| CCOc1ccccc1N=Nc1c(C)[nH]n(C(N)=S)c1=O |  | 5.62 µM [falling, single point] |
| CCc1ccc(Nc2ncnc3c2cnn3-c2cc(Cl)ccc2C)cc1 | 0.0891 µM [rising, full curve, poor fit] |  |
| CCCC1(C(=O)OCC)NC(c2ccc(N(C)C)cc2)C2C(=O)N(c3ccc4c(c3)OCCO4)C(=O)C21 (stereo not drawn) | 0.651 µM [rising, full curve, poor fit] |  |

| Structure (SMILES) | AC50 [1] | AC50 [2] |
| --- | --- | --- |
| CCCCCCCCCS(=O)(=O)N/N=C/c1cccc([N+](=O)[O-])c1 | 0.00411 µM [falling, full curve, poor fit] |  |
| CCSc1nnc(N(CCC#N)CCC#N)s1 | 11.2 µM [falling, partial curve, poor fit] |  |
| Cc1ccc2c(c1)c1c3n2CCCNC3CCC1 (stereo not drawn) | 15.8 µM [falling, single point] |  |
| COc1ccc(S(=O)(=O)N(C)C)cc1NC(=O)CCCSc1ccccc1 | 0.398 µM [rising, full curve, poor fit] |  |
| COc1ccccc1NC(=O)C(=O)N1N=C(C(C)C)CC1(O)C(F)(F)F (stereo not drawn) | 7.94 µM [falling, partial curve] |  |
| Nc1c(-c2nc(-c3cccs3)no2)nnn1-c1cccc(Cl)c1 | 0.1 µM [rising, full curve, poor fit] |  |
| CC[C@@]1(c2ccccc2OC)ON(c2ccccc2C(F)(F)F)C1=O | 23.1 µM [falling, partial curve] | 8.2 µM [rising, partial curve, poor fit] |
| CC1=NN(c2ccccc2)C(=O)/C1=C/C=C/C=C/N(C)C | 2.82 µM [rising, partial curve, poor fit] | 8.91 µM [rising, partial curve, poor fit] |
| CC(=O)Oc1ccc(/C=N/NC2=NS(=O)(=O)c3ccccc32)cc1 | 8.91 µM [rising, partial curve, poor fit] |  |
| COC(=O)c1ccccc1NC(=O)CCS(=O)(=O)c1ccc(Br)cc1 | 35.5 µM [falling, partial curve, poor fit] |  |
| CCCCCc1nc2c(=O)n(C)c3ccccc3c2o1 | 31.6 µM [falling, single point] |  |
| Cc1ccc(S(=O)(=O)Nc2ccccc2C(=O)NCc2cccnc2)cc1 | 11.2 µM [rising, partial curve] |  |
| O=C(O)c1nnn(-c2ccc(F)cc2F)c1-c1ccccc1 | 0.708 µM [rising, full curve, poor fit] |  |
| O=C(Nc1ccc(C2CC2(Cl)Cl)cc1)c1ccccc1Br (stereo not drawn) | 1.46 µM [falling, partial curve] |  |
| CCOC(=O)C1=C(Cc2ccc(OC)cc2)C(=O)c2ccccc2C1=O | 29.1 µM [rising, single point] | 29.1 µM [falling, single point] |
| COc1ccc(CNC(=O)c2cnc3scc(C)n3c2=O)cc1 | 2.91 µM [rising, single point] |  |
| COc1ccc(-c2ncncc2-c2ccccc2)c(O)c1 | 5.62 µM [falling, single point] |  |
| O=C(Nc1ccccc1)Nc1nnc(Cc2ccccc2F)s1 | 35.5 µM [rising, single point] |  |
| Cc1ccc(S(=O)(=O)N(CC(=O)Nc2cccnc2)c2ccccc2C)cc1 | 6.31 µM [falling, single point] |  |
| CS(=O)(=O)N1CCN(c2nc3ccc(Cl)cc3s2)CC1 | 0.282 µM [rising, partial curve, poor fit] |  |
| Cc1ccc(CNC(=O)C2CC(c3ccc(C(F)(F)F)cc3)=NO2)o1 (stereo not drawn) | 1.78 µM [falling, full curve, poor fit] |  |

Three compounds out of the list, ordered by molecular weight, largest number first.

| Structure (SMILES) | AC50 [1] | AC50 [2] |
| --- | --- | --- |
| O=C(Nc1ccc(C2CC2(Cl)Cl)cc1)c1ccccc1Br (stereo not drawn) | 1.46 µM [falling, partial curve] |  |
| CCc1ccc(Nc2ncnc3c2cnn3-c2cc(Cl)ccc2C)cc1 | 0.0891 µM [rising, full curve, poor fit] |  |
| CCSc1nnc(N(CCC#N)CCC#N)s1 | 11.2 µM [falling, partial curve, poor fit] |  |

Following part:

| Structure (SMILES) | AC50 [1] | AC50 [2] |
| --- | --- | --- |
| CN1CCN(S(=O)(=O)c2ccc(-c3ccc(Cl)cc3)cc2)CC1 | 0.0517 µM [falling, full curve, poor fit] |  |
| CCc1ccc(C(=O)NCc2cccs2)s1 | 6.51 µM [rising, single point] |  |
| Cc1sc(NC(=O)c2ccco2)nc1-c1ccccc1 | 13 µM [falling, single point] |  |
| COc1ccccc1CNC(=O)C1CCN(S(=O)(=O)c2ccc3c(c2)CC(C)N3C(C)=O)CC1 (stereo not drawn) | 22.4 µM [rising, single point] |  |
| C=CCC[C@H](Cc1ccc(F)cc1)C(=O)OC[C@@H](Cc1c[nH]c2ccccc12)NC(=O)[C@@H](CC=C)CC(=O)N[C@H](CO)Cc1ccccc1 |  | 25.9 µM [rising, partial curve, poor fit] |
| O=C(Nc1nccs1)c1ccc(-c2cccc([N+](=O)[O-])c2)o1 | 5.62 µM [falling, single point] |  |
| Cc1ccccc1NC(=O)Cn1c(O)c(N=NC(=O)c2ccccc2O)c2ccccc21 | 0.92 µM [falling, full curve] |  |
| Cc1ccc(-n2nc(C)c3c2NC2=C(C(=O)CC(C)(C)C2)C3c2ccccc2OCC(=O)O)cc1 (stereo not drawn) | 17.8 µM [falling, single point] |  |
| Cc1nc2sccn2c(=O)c1S(=O)(=O)NCCc1ccccc1 | 12.6 µM [falling, partial curve, poor fit] |  |
| Cc1ccc(NS(=O)(=O)c2ccc(N3CCN(c4ccc(O)cc4)CC3)c([N+](=O)[O-])c2)c(C)c1 | 13 µM [falling, partial curve, poor fit] | 16.4 µM [rising, partial curve, poor fit] |
| Cc1ccccc1NC(=S)/C(=C(\[O-])c1cc(C)n(Cc2ccccc2Cl)c1C)[n+]1ccccc1 | 1.26 µM [falling, partial curve] |  |
| Cc1cccc(C2Nc3ccccc3C(=O)N2c2ccccc2)n1 (stereo not drawn) | 0.366 µM [falling, full curve] |  |
| CCCCc1nc2cc(C(=O)N3CCN(c4nc(C)cnc4C)CC3)ccc2o1 | 6.31 µM [rising, single point] |  |
| CCOC(=O)C1CCN(C(=O)COC(=O)c2c(C)c(CC)nc3ccccc23)CC1 | 10.3 µM [falling, single point] |  |
| C[C@H]1CCC(=O)N(CCSc2ccc(Br)cc2)CC1 | 3.66 µM [rising, full curve, poor fit] |  |
| CCn1c(SCc2cccc(F)c2)nnc1-c1ccncc1 | 35.5 µM [falling, single point] |  |
| Oc1csc(Cc2nc(-c3ccccc3F)cs2)n1 | 0.2 µM [falling, full curve, poor fit] |  |
| O=C(NC(NC(=S)Nc1c(Cl)cccc1Cl)C(Cl)(Cl)Cl)OCc1ccccc1 (stereo not drawn) | 29.1 µM [falling, single point] | 23.1 µM [rising, partial curve, poor fit] |
| CC1Cc2ccccc2N1C(=O)CSc1ccccc1 (stereo not drawn) | 0.112 µM [rising, full curve, poor fit] |  |
